In the supplement of paper PMC6411743:
± gives the standard deviation of the averaged measurements. This is a selection; strong and weak results do not stand in their true shares. Most entries show no effect beyond the scatter of the controls.

Amino acid sequences for entries named in this document (tags omitted). A change or cut given only in a name is not applied to a line headed by its entry.
UniProt Q02790: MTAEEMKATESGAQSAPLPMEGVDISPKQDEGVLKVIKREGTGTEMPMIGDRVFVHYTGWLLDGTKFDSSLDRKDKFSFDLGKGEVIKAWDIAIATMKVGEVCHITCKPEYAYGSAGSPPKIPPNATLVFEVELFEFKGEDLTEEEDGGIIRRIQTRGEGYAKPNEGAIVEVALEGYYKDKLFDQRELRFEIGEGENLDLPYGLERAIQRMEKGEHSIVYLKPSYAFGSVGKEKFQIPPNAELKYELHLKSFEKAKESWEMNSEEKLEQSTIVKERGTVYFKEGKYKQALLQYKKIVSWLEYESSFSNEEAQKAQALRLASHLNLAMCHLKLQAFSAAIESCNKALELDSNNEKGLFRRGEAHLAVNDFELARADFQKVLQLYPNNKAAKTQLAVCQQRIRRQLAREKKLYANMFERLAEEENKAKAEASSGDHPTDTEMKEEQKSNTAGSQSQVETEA
UniProt P61201: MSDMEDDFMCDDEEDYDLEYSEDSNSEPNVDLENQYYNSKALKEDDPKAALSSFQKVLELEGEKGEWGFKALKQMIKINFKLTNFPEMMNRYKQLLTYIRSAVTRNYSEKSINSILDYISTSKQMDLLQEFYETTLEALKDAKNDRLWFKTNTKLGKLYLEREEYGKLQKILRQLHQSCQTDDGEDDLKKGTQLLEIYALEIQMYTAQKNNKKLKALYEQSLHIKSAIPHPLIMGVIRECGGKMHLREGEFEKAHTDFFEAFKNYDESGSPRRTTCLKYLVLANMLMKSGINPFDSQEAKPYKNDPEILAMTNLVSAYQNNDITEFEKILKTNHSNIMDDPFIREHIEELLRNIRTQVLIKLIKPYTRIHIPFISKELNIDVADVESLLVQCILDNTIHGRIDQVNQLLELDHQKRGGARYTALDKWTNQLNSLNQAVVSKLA
UniProt P55884, whole entry: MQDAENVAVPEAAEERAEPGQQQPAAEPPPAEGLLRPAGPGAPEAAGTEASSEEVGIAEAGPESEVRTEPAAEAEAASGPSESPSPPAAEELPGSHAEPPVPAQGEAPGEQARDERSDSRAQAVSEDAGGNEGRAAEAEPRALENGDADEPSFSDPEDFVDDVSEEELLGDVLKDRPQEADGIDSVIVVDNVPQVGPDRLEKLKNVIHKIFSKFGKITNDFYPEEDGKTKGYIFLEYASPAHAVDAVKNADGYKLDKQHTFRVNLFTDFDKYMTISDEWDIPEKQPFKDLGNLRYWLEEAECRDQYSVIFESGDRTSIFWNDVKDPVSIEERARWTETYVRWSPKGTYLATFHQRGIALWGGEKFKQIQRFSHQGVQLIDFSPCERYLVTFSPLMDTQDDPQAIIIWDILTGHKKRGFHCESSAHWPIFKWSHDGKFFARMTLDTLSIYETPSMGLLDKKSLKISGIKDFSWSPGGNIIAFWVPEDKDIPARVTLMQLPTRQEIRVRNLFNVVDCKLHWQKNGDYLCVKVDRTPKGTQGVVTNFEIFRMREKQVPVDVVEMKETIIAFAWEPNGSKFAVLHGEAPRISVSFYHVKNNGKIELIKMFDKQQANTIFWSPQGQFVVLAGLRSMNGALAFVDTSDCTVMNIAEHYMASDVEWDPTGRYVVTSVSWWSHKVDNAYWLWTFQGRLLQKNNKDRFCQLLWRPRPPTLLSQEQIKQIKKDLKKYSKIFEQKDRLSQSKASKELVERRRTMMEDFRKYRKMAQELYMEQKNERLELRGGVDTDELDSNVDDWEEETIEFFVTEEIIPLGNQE
UniProt P57076: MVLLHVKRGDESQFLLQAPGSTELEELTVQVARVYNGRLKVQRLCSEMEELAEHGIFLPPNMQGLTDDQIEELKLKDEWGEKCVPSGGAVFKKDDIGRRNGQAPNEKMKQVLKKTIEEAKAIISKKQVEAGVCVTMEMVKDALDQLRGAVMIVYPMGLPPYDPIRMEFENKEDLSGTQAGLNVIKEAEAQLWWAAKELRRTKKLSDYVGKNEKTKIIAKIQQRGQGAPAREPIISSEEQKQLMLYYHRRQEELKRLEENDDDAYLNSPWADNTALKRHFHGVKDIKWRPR
UniProt Q02880: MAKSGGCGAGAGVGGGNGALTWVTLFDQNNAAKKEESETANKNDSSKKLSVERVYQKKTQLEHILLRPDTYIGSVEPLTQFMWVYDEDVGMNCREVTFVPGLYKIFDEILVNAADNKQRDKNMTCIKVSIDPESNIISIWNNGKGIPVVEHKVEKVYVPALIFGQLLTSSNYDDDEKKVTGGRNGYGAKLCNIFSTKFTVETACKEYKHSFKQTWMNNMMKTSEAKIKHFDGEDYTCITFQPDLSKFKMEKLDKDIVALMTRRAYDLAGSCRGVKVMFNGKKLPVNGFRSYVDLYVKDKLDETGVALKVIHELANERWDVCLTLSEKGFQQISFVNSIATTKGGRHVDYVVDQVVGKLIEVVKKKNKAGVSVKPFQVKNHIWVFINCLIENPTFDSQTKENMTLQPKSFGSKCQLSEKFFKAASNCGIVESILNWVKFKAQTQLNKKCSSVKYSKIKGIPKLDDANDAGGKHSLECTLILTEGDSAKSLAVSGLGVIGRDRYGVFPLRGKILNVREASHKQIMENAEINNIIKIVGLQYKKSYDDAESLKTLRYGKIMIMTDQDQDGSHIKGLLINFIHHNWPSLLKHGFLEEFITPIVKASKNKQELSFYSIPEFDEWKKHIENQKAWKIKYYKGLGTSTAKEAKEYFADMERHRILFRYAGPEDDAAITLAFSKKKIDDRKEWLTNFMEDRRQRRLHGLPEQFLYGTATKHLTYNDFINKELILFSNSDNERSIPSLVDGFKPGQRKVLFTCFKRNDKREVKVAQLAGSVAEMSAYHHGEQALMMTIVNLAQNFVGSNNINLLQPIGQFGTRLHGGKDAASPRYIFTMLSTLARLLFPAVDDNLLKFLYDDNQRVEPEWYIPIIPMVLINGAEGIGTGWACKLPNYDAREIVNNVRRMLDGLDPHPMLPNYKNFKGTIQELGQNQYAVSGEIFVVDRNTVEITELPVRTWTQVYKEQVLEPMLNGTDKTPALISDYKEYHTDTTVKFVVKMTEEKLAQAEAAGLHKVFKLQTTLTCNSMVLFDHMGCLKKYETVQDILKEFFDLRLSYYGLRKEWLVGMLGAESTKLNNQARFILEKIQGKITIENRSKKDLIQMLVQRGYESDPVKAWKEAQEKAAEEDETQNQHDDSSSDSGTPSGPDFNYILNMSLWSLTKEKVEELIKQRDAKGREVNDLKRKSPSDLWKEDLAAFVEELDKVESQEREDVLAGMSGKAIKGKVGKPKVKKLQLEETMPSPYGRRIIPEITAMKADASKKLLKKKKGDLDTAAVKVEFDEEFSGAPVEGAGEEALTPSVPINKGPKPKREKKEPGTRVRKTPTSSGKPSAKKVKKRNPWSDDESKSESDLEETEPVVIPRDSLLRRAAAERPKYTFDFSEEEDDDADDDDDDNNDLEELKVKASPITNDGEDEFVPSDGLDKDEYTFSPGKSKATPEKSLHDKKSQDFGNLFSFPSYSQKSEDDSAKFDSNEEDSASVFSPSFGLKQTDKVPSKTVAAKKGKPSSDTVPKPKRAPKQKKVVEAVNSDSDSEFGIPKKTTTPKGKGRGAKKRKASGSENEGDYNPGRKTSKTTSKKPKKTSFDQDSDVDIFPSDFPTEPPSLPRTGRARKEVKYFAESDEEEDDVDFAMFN
UniProt Q01968: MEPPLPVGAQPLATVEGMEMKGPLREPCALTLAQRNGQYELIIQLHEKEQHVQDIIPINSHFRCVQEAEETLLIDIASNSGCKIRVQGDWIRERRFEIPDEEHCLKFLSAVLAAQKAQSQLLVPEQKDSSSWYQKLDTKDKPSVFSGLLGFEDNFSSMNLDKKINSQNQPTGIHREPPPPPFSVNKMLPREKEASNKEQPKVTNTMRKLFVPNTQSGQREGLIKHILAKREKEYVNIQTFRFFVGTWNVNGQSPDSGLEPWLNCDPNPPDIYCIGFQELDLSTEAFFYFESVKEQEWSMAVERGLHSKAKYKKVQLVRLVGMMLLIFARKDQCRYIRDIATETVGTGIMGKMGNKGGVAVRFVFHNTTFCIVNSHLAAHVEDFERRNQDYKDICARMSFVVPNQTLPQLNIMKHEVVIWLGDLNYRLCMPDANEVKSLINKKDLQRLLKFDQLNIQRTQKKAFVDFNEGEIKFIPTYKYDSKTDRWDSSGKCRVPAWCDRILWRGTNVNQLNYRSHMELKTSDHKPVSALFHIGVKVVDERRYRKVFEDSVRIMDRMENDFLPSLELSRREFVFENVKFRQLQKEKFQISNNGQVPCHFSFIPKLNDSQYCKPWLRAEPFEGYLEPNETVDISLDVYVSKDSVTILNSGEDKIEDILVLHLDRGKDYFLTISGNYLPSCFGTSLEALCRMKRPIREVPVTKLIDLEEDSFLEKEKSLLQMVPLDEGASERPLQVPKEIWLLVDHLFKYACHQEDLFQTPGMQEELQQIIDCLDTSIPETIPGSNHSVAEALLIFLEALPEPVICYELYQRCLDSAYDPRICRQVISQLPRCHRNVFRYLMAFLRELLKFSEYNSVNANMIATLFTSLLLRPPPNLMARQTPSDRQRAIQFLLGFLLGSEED
UniProt P62195, whole entry: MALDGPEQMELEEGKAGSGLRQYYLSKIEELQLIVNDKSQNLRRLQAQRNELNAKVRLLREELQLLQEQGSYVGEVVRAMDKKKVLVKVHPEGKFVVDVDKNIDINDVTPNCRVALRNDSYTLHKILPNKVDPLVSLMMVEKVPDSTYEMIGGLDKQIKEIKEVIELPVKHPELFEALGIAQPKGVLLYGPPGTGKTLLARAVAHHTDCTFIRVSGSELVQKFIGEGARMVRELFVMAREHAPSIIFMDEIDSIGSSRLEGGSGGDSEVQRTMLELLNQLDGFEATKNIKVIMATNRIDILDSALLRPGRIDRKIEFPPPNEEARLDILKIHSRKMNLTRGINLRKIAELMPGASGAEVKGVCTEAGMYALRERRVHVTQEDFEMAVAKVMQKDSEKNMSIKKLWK
UniProt P62937, whole entry, looked up: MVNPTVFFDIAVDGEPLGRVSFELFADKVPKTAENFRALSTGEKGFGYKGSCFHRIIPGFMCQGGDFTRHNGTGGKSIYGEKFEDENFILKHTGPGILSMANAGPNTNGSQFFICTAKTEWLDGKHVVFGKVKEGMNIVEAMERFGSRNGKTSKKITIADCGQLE
UniProt Q04446: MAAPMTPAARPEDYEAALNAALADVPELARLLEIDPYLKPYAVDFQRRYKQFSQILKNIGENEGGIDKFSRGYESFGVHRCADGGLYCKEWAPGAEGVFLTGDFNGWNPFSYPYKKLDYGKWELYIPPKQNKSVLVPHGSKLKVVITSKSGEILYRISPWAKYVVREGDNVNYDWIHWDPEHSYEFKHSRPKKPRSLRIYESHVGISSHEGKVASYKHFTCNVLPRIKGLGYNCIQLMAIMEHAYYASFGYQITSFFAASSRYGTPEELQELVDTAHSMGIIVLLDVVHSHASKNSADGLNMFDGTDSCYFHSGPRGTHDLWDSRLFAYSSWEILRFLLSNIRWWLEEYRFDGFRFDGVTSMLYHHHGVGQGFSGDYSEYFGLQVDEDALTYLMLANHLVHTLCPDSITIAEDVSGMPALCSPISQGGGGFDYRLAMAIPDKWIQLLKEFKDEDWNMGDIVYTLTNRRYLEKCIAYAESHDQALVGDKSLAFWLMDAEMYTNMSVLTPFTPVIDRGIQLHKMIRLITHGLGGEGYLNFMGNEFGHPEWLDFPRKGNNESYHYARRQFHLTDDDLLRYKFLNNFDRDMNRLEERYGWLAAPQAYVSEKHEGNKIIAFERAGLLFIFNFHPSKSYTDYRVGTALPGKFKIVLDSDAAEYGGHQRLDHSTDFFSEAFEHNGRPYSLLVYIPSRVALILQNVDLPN
UniProt P62318, whole entry: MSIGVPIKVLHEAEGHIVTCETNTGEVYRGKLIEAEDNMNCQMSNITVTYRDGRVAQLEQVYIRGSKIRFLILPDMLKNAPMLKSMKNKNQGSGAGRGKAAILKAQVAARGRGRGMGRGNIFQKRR
UniProt P62072: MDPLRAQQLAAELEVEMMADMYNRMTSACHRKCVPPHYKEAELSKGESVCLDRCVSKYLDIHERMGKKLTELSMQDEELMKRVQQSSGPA
UniProt P98170, whole entry: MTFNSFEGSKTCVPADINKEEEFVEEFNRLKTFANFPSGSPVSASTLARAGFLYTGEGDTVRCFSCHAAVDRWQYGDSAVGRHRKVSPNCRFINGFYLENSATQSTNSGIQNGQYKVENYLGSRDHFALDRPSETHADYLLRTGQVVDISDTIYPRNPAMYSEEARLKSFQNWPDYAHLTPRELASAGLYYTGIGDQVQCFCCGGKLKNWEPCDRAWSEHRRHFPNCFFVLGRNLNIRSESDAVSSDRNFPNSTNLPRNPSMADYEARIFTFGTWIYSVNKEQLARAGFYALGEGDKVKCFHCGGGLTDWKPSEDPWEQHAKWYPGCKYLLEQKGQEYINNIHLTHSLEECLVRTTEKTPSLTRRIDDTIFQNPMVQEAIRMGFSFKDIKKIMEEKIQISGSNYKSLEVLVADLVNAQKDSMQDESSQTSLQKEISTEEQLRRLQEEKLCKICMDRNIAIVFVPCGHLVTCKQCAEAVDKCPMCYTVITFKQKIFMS

Compound: Nc1ncnc2c1ncn2[C@@H]1O[C@H](COP(=O)(O)OP(=O)(O)NP(=O)(O)O)[C@@H](O)[C@H]1O [adenylyl imidodiphosphate]
Assay: NP40-soluble protein abundance relative to vehicle (solubility fold change) (ratio); higher = more soluble protein in presence of AMP-PNP
Conditions: concentration: 0.1mM
In short: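 Values are fold changes against the detergent-processed vehicle, based on vsn-normalised intensities. Jurkat crude lysate was treated at eight concentrations from 0.1 to 10 mM (10 min at room temperature, then 3 min at 37 °C), solubilised with 0.8% NP40 and benzonase, ultracentrifuged and analysed by TMT-labelled LC-MS/MS over three independent experiments.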

Target	NP40-soluble protein abundance
FKBP4 (UniProt Q02790)	0.99 ± 0.025
UniProt P98082 and related entries	0.988 ± 0.037
MRPS10 (UniProt P82664)	1.041 ± 0.0092
UniProt P62330	1.02 ± 0.013
UniProt P61201 and related entries	1.01 ± 0.032
UniProt Q02078-2|Q02078-4|Q02078-6|Q02078-5	1.02 ± 0.016
UniProt P55884 and related entries	1.03 ± 0.029
UniProt Q05519 and related entries	1.15 ± 0.015
UniProt P57076	0.97 ± 0.076
RPL7A (UniProt P62424)	1.03 ± 0.039
UniProt Q02750	0.985 ± 0.019
MRPS6 (UniProt P82932)	1.03 ± 0.024
UniProt Q02880 and related entries	1.38 ± 0.03
UniProt P61225	1.01 ± 0.12
PEX3 (UniProt P56589)	1.01 ± 0.019
UniProt Q01968 and related entries	1.01 ± 0.04
UniProt P61962	1.02 ± 0.022
UniProt P61960 and related entries	0.986 ± 0.057
UniProt P61978-2|P61978-3	0.996 ± 0.052

Target	NP40-soluble protein abundance
UniProt P62195	0.99 ± 0.029
UniProt P62937 and related entries	1.05 ± 0.27
UniProt P62701	1.04 ± 0.028
GBE1 (UniProt Q04446)	0.998 ± 0.019
EXOSC10 (UniProt Q01780)	1 ± 0.014
UniProt P62244	0.999 ± 0.027
UniProt Q01432-5	0.987 ± 0.012
UniProt P62318 and related entries	1.06 ± 0.12
UniProt P62072	0.997 ± 0.034
UniProt P62258	0.985 ± 0.033
PURA (UniProt Q00577)	0.99 ± 0.062
RRP1 (UniProt P56182)	1.02 ± 0.011
XIAP (UniProt P98170)	1.01 ± 0.038
UniProt P60763	1.02 ± 0.089
UniProt P61221	0.974 ± 0.022
VBP1 (UniProt P61758)	0.97 ± 0.089
CTBS (UniProt Q01459)	0.989 ± 0.012
UniProt P63146	0.994 ± 0.029
TFAM (UniProt Q00059)	1.02 ± 0.12

Same assay, conditions: concentration: 0.5mM

Target	NP40-soluble protein abundance
FKBP4 (UniProt Q02790)	0.992 ± 0.02
UniProt P98082 and related entries	1.02 ± 0.014
MRPS10 (UniProt P82664)	1.06 ± 0.0024
UniProt P62330	1.06 ± 0.046
UniProt P61201 and related entries	1.03 ± 0.027
UniProt Q02078-2|Q02078-4|Q02078-6|Q02078-5	0.9826 ± 0.0064
UniProt P55884 and related entries	1.01 ± 0.059
UniProt Q05519 and related entries	1.1 ± 0.038
UniProt P57076	1.02 ± 0.084
RPL7A (UniProt P62424)	0.991 ± 0.036
UniProt Q02750	1.06 ± 0.021
MRPS6 (UniProt P82932)	1.07 ± 0.11
UniProt Q02880 and related entries	1.49 ± 0.063
UniProt P61225	0.974 ± 0.16
PEX3 (UniProt P56589)	0.967 ± 0.022
UniProt Q01968 and related entries	1 ± 0.03
UniProt P61962	1 ± 0.097
UniProt P61960 and related entries	0.945 ± 0.032
UniProt P61978-2|P61978-3	1.03 ± 0.045

Target	NP40-soluble protein abundance
UniProt P62195	0.976 ± 0.013
UniProt P62937 and related entries	0.883 ± 0.14
UniProt P62701	1 ± 0.072
GBE1 (UniProt Q04446)	0.959 ± 0.046
EXOSC10 (UniProt Q01780)	1.037 ± 0.0071
UniProt P62244	1.01 ± 0.059
UniProt Q01432-5	1.02 ± 0.041
UniProt P62318 and related entries	1.04 ± 0.084
UniProt P62072	0.977 ± 0.039
UniProt P62258	1.02 ± 0.078
PURA (UniProt Q00577)	1.01 ± 0.096
RRP1 (UniProt P56182)	1.01 ± 0.044
XIAP (UniProt P98170)	0.992 ± 0.02
UniProt P60763	1.07 ± 0.038
UniProt P61221	0.927 ± 0.052
VBP1 (UniProt P61758)	0.965 ± 0.079
CTBS (UniProt Q01459)	1 ± 0.028
UniProt P63146	1.028 ± 0.0023
TFAM (UniProt Q00059)	1.05 ± 0.17
